Source: paper PMC5323203
No constants are given. Whether binding was seen depends on the method and setting. In cells and extracts the contact can be indirect. Some binding calls cover weakened binding; strength is not graded here. Values belong to the substance of their own block, whether it stands above or below them.

Protein sequences, listed by entry. Tags and fused reporters are not part of them.
UniProt P58462: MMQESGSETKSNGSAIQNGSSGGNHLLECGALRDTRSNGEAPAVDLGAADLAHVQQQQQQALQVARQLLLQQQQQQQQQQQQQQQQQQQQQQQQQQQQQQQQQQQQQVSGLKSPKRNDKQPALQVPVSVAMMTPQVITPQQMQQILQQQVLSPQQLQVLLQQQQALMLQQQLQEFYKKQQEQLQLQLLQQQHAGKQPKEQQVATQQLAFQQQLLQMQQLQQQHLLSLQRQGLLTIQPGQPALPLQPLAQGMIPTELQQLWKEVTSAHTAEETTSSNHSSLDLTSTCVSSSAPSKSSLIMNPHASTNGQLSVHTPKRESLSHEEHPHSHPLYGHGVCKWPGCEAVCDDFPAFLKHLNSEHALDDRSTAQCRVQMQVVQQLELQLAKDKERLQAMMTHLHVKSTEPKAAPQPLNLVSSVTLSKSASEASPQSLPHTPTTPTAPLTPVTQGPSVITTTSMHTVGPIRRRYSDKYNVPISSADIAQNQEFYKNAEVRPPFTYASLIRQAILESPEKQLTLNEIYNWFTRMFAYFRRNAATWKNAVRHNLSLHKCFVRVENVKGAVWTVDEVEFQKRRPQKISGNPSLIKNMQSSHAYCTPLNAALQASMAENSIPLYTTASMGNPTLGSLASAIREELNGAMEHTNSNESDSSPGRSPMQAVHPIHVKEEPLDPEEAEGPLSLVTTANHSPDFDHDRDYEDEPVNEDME
UniProt Q03267: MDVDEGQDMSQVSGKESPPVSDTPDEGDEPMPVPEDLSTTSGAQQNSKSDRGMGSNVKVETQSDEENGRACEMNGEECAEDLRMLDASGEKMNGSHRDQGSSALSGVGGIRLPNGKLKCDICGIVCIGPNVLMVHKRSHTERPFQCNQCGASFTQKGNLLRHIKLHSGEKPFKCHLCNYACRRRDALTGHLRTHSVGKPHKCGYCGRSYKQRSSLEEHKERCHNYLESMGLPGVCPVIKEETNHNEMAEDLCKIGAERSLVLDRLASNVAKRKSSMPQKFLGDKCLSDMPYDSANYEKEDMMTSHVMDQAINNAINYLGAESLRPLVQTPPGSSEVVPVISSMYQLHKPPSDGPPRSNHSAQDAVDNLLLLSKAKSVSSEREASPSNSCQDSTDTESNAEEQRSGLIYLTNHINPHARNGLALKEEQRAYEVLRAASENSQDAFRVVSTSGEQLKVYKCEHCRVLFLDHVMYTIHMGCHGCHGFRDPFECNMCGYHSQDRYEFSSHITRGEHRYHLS

Experiments:
[1] = target: GST-Foxp1 fusion protein (mouse) (mouse) (UniProt P58462); assay: pull-down; GST or GST-Foxp1 from bacterial extracts immobilised on GSH-agarose beads and washed; 1 ul of 35S-labelled in vitro translated Ikaros in 200 ul 0.02 M HEPES-KOH pH 7.9, 0.1% NP-40, 0.15 M NaCl, 1 mM DTT, 1 h at 4°C; quantified relative to input and to wild type (100%); only the target purified
[2] = target: FLAG-tagged Foxp1 (wild type, mouse) (mouse) (UniProt P58462); assay: co-IP; lysates of co-transfected 293T cells; IP with anti-FLAG or anti-Ikaros, immunoblot with anti-HA, anti-Ikaros or anti-FLAG; extracts treated with DNase I (no effect on the pulldowns), antibody-coupled G Dynabeads, 30 minutes at room temperature
[3] = target: Ikaros (endogenous, murine fetal liver pre-B cells) (mouse (endogenous in murine fetal liver pre-B cells)) (UniProt Q03267); assay: co-IP; lysate of wild-type murine fetal liver pre-B cells; IP with anti-Ikaros, anti-Foxp1 or control Ig, immunoblot with anti-Foxp1; extracts treated with DNase I, antibody-coupled G Dynabeads, 30 minutes at room temperature
[4] = target: HA-tagged Ikaros (wild type, mouse) (mouse) (UniProt Q03267); assay: co-IP; lysates of co-transfected 293T cells; IP with anti-FLAG or anti-Ikaros, immunoblot with anti-HA, anti-Ikaros or anti-FLAG; extracts treated with DNase I (no effect on the pulldowns), antibody-coupled G Dynabeads, 30 minutes at room temperature

binding [1]: binds
Substance: 35S-labelled wild-type Ikaros (mouse, in vitro translated) (from UniProt Q03267 1-517)

binding [2]: binds
Substance: HA-tagged Ikaros (wild type, mouse) (from UniProt Q03267 1-517)

binding [3]: binds
Substance: full-length Foxp1 (Foxp1A) (endogenous, murine fetal liver pre-B cells) (from UniProt P58462 1-705)

binding [4]: binds
Substance: FLAG-tagged Foxp1 (wild type, mouse) (from UniProt P58462 1-705)
